Counter-ions that a name gives are not always drawn. The list shows a part of the results. Hit calls seldom repeat between salt and free forms of one compound.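 Kinases, fused to nanoluciferase, were expressed in K562 cells; luminescence was measured every 4 h from 2 to 18 h as percent of control (DMSO = 100%, positive control = 0%). A time point is decreased if signal falls significantly (2 sigma). Hits were called by the authors by a rule that is not shown; the count of time points alone does not decide it.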
What was measured:
Assay in all cases: kinase-Nluc reporter destabilization hit call (1 = scored as downregulated) (binary); higher = compound decreases kinase abundance
Settings in all cases: K562; 2-18 h
[1] = molecular target: ERN1 (UniProt O75460)
[2] = molecular target: FGFR1 (UniProt P11362)
[3] = molecular target: FGFR2 (UniProt P21802)
[4] = molecular target: FGFR3 (UniProt P22607)
[5] = molecular target: FGR (UniProt P09769)
[6] = molecular target: FLT3 (UniProt P36888)
[7] = molecular target: FYN (UniProt P06241)
[8] = molecular target: GSK3A (UniProt P49840)
[9] = molecular target: HER2 (UniProt P04626)
[10] = molecular target: INSRR (UniProt P14616)

Chains of the proteins cited; added tags and fusions are not shown. Lines headed by an entry give the natural chain unless they say otherwise; changes in a name come on top.
UniProt O75460: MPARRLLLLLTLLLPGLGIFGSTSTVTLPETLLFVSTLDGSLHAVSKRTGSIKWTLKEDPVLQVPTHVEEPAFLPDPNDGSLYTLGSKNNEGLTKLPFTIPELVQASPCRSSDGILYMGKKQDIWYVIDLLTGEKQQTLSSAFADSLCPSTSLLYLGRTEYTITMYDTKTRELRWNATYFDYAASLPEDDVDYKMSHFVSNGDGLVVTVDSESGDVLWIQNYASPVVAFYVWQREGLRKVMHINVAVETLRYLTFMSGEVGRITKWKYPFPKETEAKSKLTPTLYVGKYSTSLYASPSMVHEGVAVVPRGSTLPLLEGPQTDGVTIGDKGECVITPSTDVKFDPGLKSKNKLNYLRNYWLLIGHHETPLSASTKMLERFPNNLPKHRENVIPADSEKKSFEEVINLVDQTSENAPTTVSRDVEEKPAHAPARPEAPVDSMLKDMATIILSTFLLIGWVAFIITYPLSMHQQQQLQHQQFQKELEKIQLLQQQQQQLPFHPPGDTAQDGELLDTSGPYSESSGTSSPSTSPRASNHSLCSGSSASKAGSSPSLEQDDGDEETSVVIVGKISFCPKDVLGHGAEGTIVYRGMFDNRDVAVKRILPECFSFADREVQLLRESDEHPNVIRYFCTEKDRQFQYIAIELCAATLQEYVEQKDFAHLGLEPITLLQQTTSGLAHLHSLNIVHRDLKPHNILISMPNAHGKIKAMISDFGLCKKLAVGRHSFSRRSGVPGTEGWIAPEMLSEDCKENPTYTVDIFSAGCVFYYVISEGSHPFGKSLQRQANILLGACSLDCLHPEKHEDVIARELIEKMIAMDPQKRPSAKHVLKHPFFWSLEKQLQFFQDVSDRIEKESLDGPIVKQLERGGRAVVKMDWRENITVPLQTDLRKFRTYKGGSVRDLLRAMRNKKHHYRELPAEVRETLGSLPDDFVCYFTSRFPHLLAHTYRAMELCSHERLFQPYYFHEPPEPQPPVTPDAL
UniProt P11362, whole entry, looked up: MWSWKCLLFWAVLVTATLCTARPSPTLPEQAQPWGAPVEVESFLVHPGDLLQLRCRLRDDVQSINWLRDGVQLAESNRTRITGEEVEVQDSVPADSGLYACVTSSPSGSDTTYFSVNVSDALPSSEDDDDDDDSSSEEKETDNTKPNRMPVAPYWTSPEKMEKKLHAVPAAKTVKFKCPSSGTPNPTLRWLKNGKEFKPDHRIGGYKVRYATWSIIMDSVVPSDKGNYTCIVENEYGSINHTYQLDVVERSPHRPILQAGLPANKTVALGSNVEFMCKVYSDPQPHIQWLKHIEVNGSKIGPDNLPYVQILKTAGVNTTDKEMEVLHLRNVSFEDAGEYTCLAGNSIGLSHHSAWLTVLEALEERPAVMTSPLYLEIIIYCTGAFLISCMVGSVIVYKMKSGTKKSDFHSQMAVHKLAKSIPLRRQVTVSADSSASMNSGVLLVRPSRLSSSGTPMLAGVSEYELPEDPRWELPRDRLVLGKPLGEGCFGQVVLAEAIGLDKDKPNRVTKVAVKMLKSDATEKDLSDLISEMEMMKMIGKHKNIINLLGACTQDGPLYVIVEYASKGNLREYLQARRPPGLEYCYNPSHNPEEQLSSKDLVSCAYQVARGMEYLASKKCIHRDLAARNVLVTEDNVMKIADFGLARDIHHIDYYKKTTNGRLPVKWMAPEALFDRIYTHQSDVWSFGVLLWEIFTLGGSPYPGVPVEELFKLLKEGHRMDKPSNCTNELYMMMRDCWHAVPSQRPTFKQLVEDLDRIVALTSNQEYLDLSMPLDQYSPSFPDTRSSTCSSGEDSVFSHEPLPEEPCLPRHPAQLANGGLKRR
UniProt P22607, whole entry, looked up: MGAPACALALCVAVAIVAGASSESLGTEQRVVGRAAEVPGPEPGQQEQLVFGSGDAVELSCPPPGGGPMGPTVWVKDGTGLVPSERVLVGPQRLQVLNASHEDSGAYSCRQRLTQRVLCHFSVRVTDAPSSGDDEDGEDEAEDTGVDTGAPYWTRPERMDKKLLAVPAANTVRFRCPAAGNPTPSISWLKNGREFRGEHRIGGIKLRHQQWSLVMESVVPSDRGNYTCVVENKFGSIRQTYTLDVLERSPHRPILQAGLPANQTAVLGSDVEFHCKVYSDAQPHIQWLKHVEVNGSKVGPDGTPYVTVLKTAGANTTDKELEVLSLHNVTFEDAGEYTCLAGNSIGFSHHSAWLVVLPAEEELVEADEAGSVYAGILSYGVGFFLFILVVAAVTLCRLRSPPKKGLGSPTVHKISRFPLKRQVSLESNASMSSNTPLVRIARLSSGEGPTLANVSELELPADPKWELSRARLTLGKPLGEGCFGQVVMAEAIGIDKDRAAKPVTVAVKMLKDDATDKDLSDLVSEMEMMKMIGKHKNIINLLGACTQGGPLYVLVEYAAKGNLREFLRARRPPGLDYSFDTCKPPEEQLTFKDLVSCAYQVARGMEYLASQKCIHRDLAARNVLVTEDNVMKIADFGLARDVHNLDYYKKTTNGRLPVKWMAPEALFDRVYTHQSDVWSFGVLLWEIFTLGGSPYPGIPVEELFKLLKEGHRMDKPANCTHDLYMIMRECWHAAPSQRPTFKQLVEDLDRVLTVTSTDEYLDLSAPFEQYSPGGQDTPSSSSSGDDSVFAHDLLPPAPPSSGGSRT
UniProt P36888, whole entry: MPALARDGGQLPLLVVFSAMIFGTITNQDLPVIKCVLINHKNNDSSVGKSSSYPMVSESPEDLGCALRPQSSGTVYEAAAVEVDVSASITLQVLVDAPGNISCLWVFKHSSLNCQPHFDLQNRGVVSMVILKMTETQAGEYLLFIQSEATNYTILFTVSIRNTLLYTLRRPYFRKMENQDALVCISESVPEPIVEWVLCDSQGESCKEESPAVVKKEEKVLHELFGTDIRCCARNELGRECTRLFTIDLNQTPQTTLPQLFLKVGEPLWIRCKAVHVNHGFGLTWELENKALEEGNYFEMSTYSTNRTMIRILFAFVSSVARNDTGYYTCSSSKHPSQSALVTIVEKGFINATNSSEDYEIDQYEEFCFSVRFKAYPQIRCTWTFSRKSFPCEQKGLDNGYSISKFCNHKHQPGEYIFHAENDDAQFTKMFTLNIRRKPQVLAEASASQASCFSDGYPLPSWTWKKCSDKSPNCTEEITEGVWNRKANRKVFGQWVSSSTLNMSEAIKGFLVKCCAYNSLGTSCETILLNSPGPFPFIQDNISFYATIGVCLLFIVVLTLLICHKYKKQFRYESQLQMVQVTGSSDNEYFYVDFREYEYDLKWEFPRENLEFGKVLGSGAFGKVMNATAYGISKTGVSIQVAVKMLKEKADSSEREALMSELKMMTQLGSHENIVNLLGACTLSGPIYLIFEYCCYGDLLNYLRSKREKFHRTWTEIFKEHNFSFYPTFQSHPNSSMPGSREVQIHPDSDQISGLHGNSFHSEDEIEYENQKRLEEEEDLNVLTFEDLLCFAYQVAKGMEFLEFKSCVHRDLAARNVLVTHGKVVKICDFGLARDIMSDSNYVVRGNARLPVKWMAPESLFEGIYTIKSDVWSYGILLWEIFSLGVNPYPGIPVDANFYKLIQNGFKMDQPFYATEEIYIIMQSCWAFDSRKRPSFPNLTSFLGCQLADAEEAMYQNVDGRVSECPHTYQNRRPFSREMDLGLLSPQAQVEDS
UniProt P06241, whole entry, looked up: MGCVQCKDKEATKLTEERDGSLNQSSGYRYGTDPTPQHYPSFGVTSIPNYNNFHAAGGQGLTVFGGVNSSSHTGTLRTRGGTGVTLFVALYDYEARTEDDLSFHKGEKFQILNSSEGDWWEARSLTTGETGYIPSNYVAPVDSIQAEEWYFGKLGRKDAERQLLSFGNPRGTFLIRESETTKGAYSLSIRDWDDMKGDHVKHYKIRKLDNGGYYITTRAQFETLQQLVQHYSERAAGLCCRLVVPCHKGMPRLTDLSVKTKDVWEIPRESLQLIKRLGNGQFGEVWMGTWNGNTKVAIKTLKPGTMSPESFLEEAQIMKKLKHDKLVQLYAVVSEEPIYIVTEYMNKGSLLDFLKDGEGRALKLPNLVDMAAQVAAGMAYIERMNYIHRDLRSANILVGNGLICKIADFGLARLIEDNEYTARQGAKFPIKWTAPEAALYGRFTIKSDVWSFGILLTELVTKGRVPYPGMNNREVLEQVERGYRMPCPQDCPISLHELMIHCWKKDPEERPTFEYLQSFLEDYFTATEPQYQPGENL
UniProt P49840: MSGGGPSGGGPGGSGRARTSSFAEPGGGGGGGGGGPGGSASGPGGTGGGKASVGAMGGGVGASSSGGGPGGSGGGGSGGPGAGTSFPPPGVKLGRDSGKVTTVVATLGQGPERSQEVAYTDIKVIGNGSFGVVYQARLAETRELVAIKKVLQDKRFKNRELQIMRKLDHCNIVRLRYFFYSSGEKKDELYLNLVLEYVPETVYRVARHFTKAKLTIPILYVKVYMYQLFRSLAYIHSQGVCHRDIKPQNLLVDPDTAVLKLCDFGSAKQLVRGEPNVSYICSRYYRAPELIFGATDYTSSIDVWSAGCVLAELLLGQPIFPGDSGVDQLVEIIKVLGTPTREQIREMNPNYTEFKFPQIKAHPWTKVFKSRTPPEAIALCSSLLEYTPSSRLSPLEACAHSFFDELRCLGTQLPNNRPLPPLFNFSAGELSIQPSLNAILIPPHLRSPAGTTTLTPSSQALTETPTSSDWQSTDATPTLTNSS
UniProt P14616: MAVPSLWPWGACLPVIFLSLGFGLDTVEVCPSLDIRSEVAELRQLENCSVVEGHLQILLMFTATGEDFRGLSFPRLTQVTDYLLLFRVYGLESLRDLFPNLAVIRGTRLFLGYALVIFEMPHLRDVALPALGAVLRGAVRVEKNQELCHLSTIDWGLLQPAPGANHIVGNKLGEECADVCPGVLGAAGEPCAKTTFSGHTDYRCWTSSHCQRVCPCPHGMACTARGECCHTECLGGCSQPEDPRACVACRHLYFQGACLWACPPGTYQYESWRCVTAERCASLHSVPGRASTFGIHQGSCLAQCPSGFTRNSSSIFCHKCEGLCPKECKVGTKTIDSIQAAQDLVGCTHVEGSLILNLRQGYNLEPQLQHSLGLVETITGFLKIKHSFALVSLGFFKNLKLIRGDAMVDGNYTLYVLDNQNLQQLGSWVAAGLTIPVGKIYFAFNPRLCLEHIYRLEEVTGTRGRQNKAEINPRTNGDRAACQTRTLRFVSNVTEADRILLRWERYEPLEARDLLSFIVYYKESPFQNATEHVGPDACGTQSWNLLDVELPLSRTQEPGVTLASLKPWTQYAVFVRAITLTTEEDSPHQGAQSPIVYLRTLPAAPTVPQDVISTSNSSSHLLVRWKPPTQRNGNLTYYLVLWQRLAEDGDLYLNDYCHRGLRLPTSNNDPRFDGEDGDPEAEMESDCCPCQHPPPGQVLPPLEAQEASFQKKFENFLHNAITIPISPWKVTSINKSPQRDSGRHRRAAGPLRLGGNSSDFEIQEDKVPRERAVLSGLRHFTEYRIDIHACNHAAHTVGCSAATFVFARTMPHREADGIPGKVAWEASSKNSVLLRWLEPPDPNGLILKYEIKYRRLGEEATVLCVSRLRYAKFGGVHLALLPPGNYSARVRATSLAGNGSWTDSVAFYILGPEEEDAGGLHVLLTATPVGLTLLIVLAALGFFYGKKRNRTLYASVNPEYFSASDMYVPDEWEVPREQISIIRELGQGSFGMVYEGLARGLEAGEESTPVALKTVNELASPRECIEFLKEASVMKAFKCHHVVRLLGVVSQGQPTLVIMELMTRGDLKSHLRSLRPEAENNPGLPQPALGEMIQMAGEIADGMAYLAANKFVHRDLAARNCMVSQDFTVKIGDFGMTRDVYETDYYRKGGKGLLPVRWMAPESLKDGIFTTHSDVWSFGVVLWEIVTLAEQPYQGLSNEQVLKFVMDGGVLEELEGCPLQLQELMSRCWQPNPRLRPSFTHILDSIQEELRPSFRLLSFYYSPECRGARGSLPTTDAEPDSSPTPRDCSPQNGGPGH

SMILES	kinase-Nluc reporter destabilization hit call [1]	kinase-Nluc reporter destabilization hit call [2]	kinase-Nluc reporter destabilization hit call [3]	kinase-Nluc reporter destabilization hit call [4]	kinase-Nluc reporter destabilization hit call [5]	kinase-Nluc reporter destabilization hit call [6]	kinase-Nluc reporter destabilization hit call [7]	kinase-Nluc reporter destabilization hit call [8]	kinase-Nluc reporter destabilization hit call [9]	kinase-Nluc reporter destabilization hit call [10]
COc1cc2c(cc1Nc1ncc(C(N)=O)c(Nc3c(F)cccc3C(F)(F)F)n1)CN(C)CC2 (2.5 µM)	inactive: 0	inactive: 0	inactive: 0	inactive: 0	inactive: 0	inactive: 0	inactive: 0	inactive: 0	inactive: 0	inactive: 0
Cc1c(C)c(NCC(=O)N(C)C2CCN(Cc3ccc(C(N)=O)cc3)CC2)c(C)c(C)c1N (10 µM)	inactive: 0	inactive: 0	inactive: 0	inactive: 0	inactive: 0	inactive: 0	inactive: 0	inactive: 0	inactive: 0	inactive: 0
N#C/C(=C\c1ccc(O)c(O)c1)C(=O)O [Tyrphostin AG30] (10 µM)	inactive: 0	inactive: 0	inactive: 0	inactive: 0	inactive: 0	inactive: 0	inactive: 0	inactive: 0	inactive: 0	inactive: 0
Cc1ccc(C)c(OCCn2cc(C(=O)O)c3ccccc32)c1 (10 µM)	inactive: 0	inactive: 0	inactive: 0	inactive: 0	inactive: 0	inactive: 0	inactive: 0	inactive: 0	inactive: 0	inactive: 0
O=Nc1c(-c2c(O)[nH]c3cc(Br)ccc23)[nH]c2ccccc12 [GSK 3 Inhibitor IX] (2.5 µM)	inactive: 0	inactive: 0	inactive: 0	inactive: 0	inactive: 0	inactive: 0	inactive: 0	inactive: 0	inactive: 0	inactive: 0
NC(=O)c1ccc(N(C(N)=O)c2c(F)cccc2F)nc1-c1ccc(F)cc1F (10 µM)	inactive: 0	inactive: 0	inactive: 0	inactive: 0	inactive: 0	inactive: 0	inactive: 0	inactive: 0	inactive: 0	inactive: 0
Cc1c(C(=O)Nc2ccc(Oc3ccnc4[nH]cc(-c5ccccc5)c34)c(F)c2)c(=O)n(-c2ccc(F)cc2)n1C (10 µM)	inactive: 0	inactive: 0	inactive: 0	inactive: 0	inactive: 0	inactive: 0	inactive: 0	inactive: 0	inactive: 0	inactive: 0
Cc1cc(O)c2c(c1)C(=O)c1cccc(O)c1C2=O [Chrysophanol] (2 µM)	inactive: 0	inactive: 0	inactive: 0	inactive: 0	inactive: 0	inactive: 0	inactive: 0	inactive: 0	inactive: 0	inactive: 0
N[C@@H]1CCCN(c2c(/C=C3\SC(=O)NC3=O)cccc2-c2ccccc2)C1 (10 µM)	inactive: 0	inactive: 0	inactive: 0	inactive: 0	inactive: 0	inactive: 0	inactive: 0	inactive: 0	inactive: 0	inactive: 0
O=c1[nH]ccc2nc(-c3ccc(CN4CCC(c5nc(-c6ccccn6)n[nH]5)CC4)cc3)c(-c3ccccc3)cc12 (10 µM)	inactive: 0	inactive: 0	inactive: 0	inactive: 0	inactive: 0	inactive: 0	inactive: 0	inactive: 0	inactive: 0	inactive: 0
c1nn(C2CCOCC2)cc1Nc1ncc2nnn(-c3ccc4cn[nH]c4c3)c2n1 (10 µM)	inactive: 0	inactive: 0	inactive: 0	inactive: 0	inactive: 0	inactive: 0	inactive: 0	inactive: 0	inactive: 0	inactive: 0
CCc1c[nH]c2ncnc(N3CC[C@](N)(CNC(=O)c4ccc(F)cc4F)C3)c12 (10 µM)	inactive: 0	inactive: 0	inactive: 0	inactive: 0	inactive: 0	inactive: 0	inactive: 0	inactive: 0	inactive: 0	inactive: 0
O=C1CC[C@H](NC(=O)Cc2ccccc2)C(=O)N1 [Antineoplaston A10] (10 µM)	inactive: 0	inactive: 0	inactive: 0	inactive: 0	inactive: 0	inactive: 0	inactive: 0	inactive: 0	inactive: 0	inactive: 0
COC(=O)Nc1ccc(-c2nc(N3CCOCC3)c3cnn(C4CCN(Cc5cccnc5)CC4)c3n2)cc1 (10 µM)	inactive: 0	inactive: 0	inactive: 0	inactive: 0	inactive: 0	inactive: 0	inactive: 0	inactive: 0	inactive: 0	inactive: 0
NCC1CCC(CNc2nc(NCc3ccccc3OC(F)(F)F)ncc2[N+](=O)[O-])CC1 (stereo not given) [PKC-theta inhibitor] (10 µM)	inactive: 0	active: 1	inactive: 0	inactive: 0	inactive: 0	inactive: 0	inactive: 0	inactive: 0	inactive: 0	inactive: 0
Cn1c(=O)c2c(nc(S(C)(=O)=O)n2C)n(CC#Cc2cccc(O)c2)c1=O (2.5 µM)	inactive: 0	inactive: 0	inactive: 0	inactive: 0	inactive: 0	inactive: 0	inactive: 0	inactive: 0	inactive: 0	inactive: 0
Cc1ccc(NC(=O)Nc2cc(C(F)(F)F)ccc2F)cc1Nc1ccc2c(c1)NC(=O)/C2=C\c1ccc[nH]1 (2.5 µM)	inactive: 0	inactive: 0	inactive: 0	inactive: 0	inactive: 0	inactive: 0	inactive: 0	inactive: 0	inactive: 0	inactive: 0
CCC(=O)Nc1cccc(Oc2nc(Nc3ccc(N4CCN(C)CC4)cc3OC)ncc2Cl)c1 (10 µM)	inactive: 0	inactive: 0	inactive: 0	inactive: 0	inactive: 0	inactive: 0	inactive: 0	inactive: 0	inactive: 0	inactive: 0
C=C1CCC[C@]2(C)C=C3OC(=O)C(C)=C3C[C@@H]12 [Atractylenolide I] (10 µM)	inactive: 0	inactive: 0	inactive: 0	inactive: 0	inactive: 0	inactive: 0	inactive: 0	inactive: 0	inactive: 0	inactive: 0
C=CC(=O)Nc1cccc(Oc2nc(Nc3ccc(N4CCN(C)CC4)c(F)c3)nc3[nH]ccc23)c1 [Avitinib (maleate)] (2.5 µM)	inactive: 0	inactive: 0	inactive: 0	inactive: 0	inactive: 0	inactive: 0	inactive: 0	inactive: 0	inactive: 0	inactive: 0
C=CC(=O)N1CCN(C(=O)CNc2cc(I)c(Cl)cc2O)CC1 [K-Ras(G12C) inhibitor 12] (10 µM)	inactive: 0	inactive: 0	inactive: 0	inactive: 0	inactive: 0	inactive: 0	inactive: 0	inactive: 0	inactive: 0	inactive: 0
O=C(Nc1cccc(-c2nc(-c3ccc(NC(=O)c4cccnc4)cc3Cl)no2)c1)Nc1ccc(NC(=O)C2CC2)c(C(F)(F)F)c1 (2.5 µM)	inactive: 0	inactive: 0	inactive: 0	inactive: 0	inactive: 0	inactive: 0	inactive: 0	inactive: 0	inactive: 0	inactive: 0
CC(C)n1c([C@H](C)Nc2ncnc(N)c2C#N)cc2cccc(-c3ccc(=O)n(C)c3)c2c1=O (10 µM)	inactive: 0	inactive: 0	inactive: 0	inactive: 0	inactive: 0	inactive: 0	inactive: 0	inactive: 0	inactive: 0	inactive: 0
O=C(O)c1cc(N(Cc2ccccc2O)Cc2cc(O)ccc2O)ccc1O [Lavendustin A] (10 µM)	inactive: 0	inactive: 0	inactive: 0	inactive: 0	inactive: 0	inactive: 0	inactive: 0	inactive: 0	inactive: 0	inactive: 0
CC(O)(C#Cc1ccc2c(c1)N(c1nc(N)ncc1Cl)CC2)c1nccs1 (stereo not given) (2.5 µM)	inactive: 0	inactive: 0	inactive: 0	inactive: 0	inactive: 0	inactive: 0	inactive: 0	inactive: 0	inactive: 0	inactive: 0
C=C1C(=O)[C@@]23[C@H](O)C[C@@H]4C(C)(C)C(=O)CC[C@@]4(C)[C@@H]2CC[C@@H]1[C@H]3O [Glaucocalyxin A] (2.5 µM)	inactive: 0	inactive: 0	inactive: 0	inactive: 0	inactive: 0	inactive: 0	inactive: 0	inactive: 0	inactive: 0	inactive: 0
COC(=O)[C@H](CCSC)NC(=O)c1ccc(NC[C@@H](N)CS)cc1-c1ccccc1 [FTI-277 (hydrochloride)] (10 µM)	inactive: 0	inactive: 0	inactive: 0	inactive: 0	inactive: 0	inactive: 0	inactive: 0	inactive: 0	inactive: 0	inactive: 0
C=CC(=O)N1CC[C@@H](Oc2nc(Nc3ccc(N4CCC(N5CCN(C)CC5)CC4)cc3)c(C(N)=O)nc2CC)C1 [Naquotinib (mesylate)] (2.5 µM)	inactive: 0	inactive: 0	inactive: 0	inactive: 0	inactive: 0	inactive: 0	inactive: 0	inactive: 0	inactive: 0	inactive: 0
Cc1cccc(-c2[nH]ncc2-c2ccnc3ccccc23)n1 (10 µM)	inactive: 0	inactive: 0	inactive: 0	inactive: 0	inactive: 0	inactive: 0	inactive: 0	inactive: 0	inactive: 0	inactive: 0

Complete entries, looked up by structure. Values in the order: kinase-Nluc reporter destabilization hit call [1]	kinase-Nluc reporter destabilization hit call [2]	kinase-Nluc reporter destabilization hit call [3]	kinase-Nluc reporter destabilization hit call [4]	kinase-Nluc reporter destabilization hit call [5]	kinase-Nluc reporter destabilization hit call [6]	kinase-Nluc reporter destabilization hit call [7]	kinase-Nluc reporter destabilization hit call [8]	kinase-Nluc reporter destabilization hit call [9]	kinase-Nluc reporter destabilization hit call [10]
CCc1c[nH]c2ncnc(N3CC[C@](N)(CNC(=O)c4ccc(F)cc4F)C3)c12 (10 µM) in the list: inactive: 0	inactive: 0	inactive: 0	inactive: 0	inactive: 0	inactive: 0	inactive: 0	inactive: 0	inactive: 0	inactive: 0
Cc1c(C(=O)Nc2ccc(Oc3ccnc4[nH]cc(-c5ccccc5)c34)c(F)c2)c(=O)n(-c2ccc(F)cc2)n1C (10 µM) in the list: inactive: 0	inactive: 0	inactive: 0	inactive: 0	inactive: 0	inactive: 0	inactive: 0	inactive: 0	inactive: 0	inactive: 0

— the supplement of paper PMC12823440, “Inhibitors supercharge kinase turnover through native proteolytic circuits” (Nature, 2025)
